The values below come from paper PMC11649922.

Chains of the proteins cited; added tags and fusions are not shown.
UniProt P28159: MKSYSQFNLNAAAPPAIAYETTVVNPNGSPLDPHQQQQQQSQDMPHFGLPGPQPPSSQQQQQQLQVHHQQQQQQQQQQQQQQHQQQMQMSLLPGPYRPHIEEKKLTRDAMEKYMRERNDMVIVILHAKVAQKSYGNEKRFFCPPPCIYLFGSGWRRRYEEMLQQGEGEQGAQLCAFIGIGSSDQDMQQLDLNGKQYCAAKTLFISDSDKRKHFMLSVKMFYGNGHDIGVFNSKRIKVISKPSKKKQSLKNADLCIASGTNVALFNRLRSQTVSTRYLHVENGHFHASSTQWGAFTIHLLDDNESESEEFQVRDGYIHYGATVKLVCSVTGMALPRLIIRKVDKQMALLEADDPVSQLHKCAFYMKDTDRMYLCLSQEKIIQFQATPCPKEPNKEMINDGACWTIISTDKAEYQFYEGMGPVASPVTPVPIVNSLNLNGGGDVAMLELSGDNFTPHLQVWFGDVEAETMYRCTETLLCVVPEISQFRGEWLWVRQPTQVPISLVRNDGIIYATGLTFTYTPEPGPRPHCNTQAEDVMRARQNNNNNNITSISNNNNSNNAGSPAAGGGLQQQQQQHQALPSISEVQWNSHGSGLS
UniProt P30052: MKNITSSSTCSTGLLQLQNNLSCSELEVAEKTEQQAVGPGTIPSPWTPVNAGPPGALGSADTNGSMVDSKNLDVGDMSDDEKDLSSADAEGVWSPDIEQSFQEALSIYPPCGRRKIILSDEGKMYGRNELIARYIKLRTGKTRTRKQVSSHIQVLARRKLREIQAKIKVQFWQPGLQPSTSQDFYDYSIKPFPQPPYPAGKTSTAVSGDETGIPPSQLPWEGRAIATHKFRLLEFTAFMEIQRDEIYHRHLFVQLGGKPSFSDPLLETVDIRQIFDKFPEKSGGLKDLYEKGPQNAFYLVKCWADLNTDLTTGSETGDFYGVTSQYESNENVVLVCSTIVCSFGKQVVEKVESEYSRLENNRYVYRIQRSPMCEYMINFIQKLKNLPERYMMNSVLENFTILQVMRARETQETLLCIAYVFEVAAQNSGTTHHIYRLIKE
UniProt Q9GZV5: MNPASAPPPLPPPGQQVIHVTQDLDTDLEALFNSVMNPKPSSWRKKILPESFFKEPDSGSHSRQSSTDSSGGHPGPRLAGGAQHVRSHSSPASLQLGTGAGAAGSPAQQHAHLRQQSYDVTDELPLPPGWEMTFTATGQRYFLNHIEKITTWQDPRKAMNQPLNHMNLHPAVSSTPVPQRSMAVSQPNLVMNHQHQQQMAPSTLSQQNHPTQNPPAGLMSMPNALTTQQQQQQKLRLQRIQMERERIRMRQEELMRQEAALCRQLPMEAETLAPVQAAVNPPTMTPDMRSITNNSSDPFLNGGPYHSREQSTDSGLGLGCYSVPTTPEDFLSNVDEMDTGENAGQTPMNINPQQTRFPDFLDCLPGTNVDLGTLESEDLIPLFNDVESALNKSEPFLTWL
UniProt P46937: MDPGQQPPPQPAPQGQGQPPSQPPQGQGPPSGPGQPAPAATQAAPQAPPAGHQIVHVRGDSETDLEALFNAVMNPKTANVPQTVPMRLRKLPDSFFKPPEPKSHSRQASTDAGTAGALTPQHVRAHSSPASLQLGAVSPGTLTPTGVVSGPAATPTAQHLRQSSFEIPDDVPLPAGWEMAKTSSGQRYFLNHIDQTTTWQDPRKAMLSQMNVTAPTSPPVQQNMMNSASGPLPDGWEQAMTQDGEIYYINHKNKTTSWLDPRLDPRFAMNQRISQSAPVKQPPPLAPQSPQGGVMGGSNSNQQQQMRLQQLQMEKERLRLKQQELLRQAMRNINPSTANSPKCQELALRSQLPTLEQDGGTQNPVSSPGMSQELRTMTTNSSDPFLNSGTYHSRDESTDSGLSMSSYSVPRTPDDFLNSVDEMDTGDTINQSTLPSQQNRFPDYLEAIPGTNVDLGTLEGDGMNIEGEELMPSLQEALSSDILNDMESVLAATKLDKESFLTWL
UniProt Q06330: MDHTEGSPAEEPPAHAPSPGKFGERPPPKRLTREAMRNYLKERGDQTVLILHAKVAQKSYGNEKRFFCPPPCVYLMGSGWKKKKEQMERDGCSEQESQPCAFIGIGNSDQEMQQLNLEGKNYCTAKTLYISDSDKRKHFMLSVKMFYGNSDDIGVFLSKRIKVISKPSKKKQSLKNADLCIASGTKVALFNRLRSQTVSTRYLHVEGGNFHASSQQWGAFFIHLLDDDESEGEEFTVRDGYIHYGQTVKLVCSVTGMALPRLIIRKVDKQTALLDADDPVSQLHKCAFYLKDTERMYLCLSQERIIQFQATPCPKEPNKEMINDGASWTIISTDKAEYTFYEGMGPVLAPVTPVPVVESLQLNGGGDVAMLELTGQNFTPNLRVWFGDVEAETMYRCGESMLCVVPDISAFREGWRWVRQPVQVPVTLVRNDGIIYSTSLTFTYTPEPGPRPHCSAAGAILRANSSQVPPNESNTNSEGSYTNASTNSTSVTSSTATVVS

These are yes or no findings as the source states them, for the method shown. In cells and extracts the contact can be indirect. Some binding calls cover weakened binding; strength is not graded here. For part of these data: Tags and fused reporters may be left off the sequences shown.

In assay [1] the target is T1, Flag-tagged E75 (Eip75B, A isoform), UAS-E75^Flag (Drosophila melanogaster) (UniProt P17672).
T1 sequence: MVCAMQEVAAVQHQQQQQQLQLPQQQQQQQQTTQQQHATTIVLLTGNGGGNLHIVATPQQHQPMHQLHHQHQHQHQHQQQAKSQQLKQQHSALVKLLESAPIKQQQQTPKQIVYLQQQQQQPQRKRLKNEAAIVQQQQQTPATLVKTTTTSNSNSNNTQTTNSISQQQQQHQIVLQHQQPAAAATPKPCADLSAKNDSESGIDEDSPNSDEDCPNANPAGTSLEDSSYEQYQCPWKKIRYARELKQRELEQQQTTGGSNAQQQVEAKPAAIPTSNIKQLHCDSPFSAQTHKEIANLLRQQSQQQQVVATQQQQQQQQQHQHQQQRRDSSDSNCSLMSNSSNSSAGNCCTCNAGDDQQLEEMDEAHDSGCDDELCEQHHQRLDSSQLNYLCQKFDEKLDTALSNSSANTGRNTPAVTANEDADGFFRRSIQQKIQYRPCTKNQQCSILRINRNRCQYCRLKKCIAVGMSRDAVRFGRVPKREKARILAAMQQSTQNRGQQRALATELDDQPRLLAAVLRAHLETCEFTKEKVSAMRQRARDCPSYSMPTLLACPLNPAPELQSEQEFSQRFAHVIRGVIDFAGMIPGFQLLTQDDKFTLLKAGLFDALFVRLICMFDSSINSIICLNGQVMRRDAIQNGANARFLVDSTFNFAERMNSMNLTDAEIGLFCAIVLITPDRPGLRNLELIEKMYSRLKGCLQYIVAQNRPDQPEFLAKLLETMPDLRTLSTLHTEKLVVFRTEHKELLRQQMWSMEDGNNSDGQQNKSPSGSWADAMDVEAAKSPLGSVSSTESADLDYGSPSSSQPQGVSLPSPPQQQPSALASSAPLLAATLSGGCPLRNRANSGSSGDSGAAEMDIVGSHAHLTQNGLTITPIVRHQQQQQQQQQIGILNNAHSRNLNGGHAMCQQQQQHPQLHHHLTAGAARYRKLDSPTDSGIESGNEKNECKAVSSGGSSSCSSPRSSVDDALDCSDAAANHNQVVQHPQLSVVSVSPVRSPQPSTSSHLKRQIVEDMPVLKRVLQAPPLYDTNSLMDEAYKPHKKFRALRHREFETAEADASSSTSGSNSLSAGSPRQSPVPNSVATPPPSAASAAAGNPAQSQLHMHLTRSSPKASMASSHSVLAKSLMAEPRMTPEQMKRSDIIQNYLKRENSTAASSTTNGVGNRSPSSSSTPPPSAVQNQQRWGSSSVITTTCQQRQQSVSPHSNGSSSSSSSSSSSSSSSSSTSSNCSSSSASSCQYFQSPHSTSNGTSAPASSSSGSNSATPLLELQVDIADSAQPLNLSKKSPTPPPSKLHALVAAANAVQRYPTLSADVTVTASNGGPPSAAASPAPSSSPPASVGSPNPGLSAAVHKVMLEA
Put plainly: proximity ligation; Duolink in situ PLA on fixed eye-antennal discs with ey-Flp-MARCM-induced clones that overexpress E75^Flag (alone or with Yki and Sd^HA).

For assay [2], the target named is T1, Flag-tagged E75 (Eip75B, A isoform), UAS-E75^Flag (Drosophila melanogaster). Nature of the assay: co-IP; lysates (NP40 buffer with PMSF) of ey-Flp-MARCM-induced eye epithelial tumors expressing Sd^HA, E75^Flag and Yki (Fig. 5D,E) or Notch^act, E75^Flag and Yki (Fig. 5F,G); primary antibody or conjugated magnetic beads overnight at 4 °C; western blot. For orientation: A western blot detects proteins with antibodies after separation by electrophoresis.

Assay [3] shares this target. Put plainly: proximity ligation; Duolink in situ PLA on fixed Drosophila wing discs expressing the tagged or untagged transgenes; primary antibodies from mouse and rabbit; controls without primary antibodies.
Assay [4] has as its target T2, NR1D2-HA (UniProt Q14995).
T2 sequence: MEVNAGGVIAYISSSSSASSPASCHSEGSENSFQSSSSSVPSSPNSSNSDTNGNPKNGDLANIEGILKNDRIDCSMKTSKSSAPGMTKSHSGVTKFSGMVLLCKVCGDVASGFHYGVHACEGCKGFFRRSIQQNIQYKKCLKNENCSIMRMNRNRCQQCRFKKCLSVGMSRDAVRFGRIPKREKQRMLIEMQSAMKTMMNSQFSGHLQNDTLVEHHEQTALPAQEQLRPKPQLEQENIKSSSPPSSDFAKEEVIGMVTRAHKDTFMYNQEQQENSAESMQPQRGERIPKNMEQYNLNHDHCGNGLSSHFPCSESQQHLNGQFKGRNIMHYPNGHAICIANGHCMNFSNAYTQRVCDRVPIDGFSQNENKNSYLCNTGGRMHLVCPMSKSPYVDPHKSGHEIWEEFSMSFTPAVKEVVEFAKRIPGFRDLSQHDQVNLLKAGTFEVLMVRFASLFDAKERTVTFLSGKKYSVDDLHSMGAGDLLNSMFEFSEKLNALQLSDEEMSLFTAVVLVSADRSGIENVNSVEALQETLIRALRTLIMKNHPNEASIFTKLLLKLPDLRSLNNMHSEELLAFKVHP
Put plainly: co-IP; lysates (NP40 buffer with PMSF) of U87 MG cells stably transfected with NR1D2-HA; immunoprecipitated and probed for endogenous TEAD, TAZ, NICD1 and RBPJ.

The target in assay [5] is T3, NR1D2 (nuclear receptor subfamily 1 group D member 2), endogenous (human (endogenous in MGG6 and U87 MG)) (UniProt Q14995).
T3 sequence: T2 sequence
Nature of the assay: proximity ligation; Duolink in situ PLA on fixed MGG6 glioblastoma stem cells; mouse anti-NR1D2 with a rabbit antibody to the partner; endogenous proteins.

For assay [6], the target named is T3, NR1D2 (nuclear receptor subfamily 1 group D member 2), endogenous (human (endogenous in MGG6 and U87 MG)). Put plainly: proximity ligation; Duolink in situ PLA on fixed U87 MG cells; mouse anti-NR1D2 with a rabbit antibody to the partner; endogenous proteins.

On to “Suppressor of Hairless [Su(H)], endogenous (from UniProt P28159 1-594)”, for which the binding entry in assay [1] and in assay [2] was “binds” each time.
Consider “HA-tagged Sd (UAS-Sd^HA) (from UniProt P30052 1-440)”, for which the binding entry in assay [1], in assay [2] and in assay [3] was “binds” in each case.
As for “TAZ, endogenous (from UniProt Q9GZV5 1-400)”, the binding result in assay [4], in assay [5] and in assay [6] was “binds” in each case.
“Yap, endogenous (from UniProt P46937 1-504)”: the binding result in assay [5] and in assay [6] was “binds” throughout.
Turning to “RBPJ, endogenous (from UniProt Q06330 1-500)”, the binding entry in assay [4], in assay [5] and in assay [6] was “binds” each time.

B1: Myc-tagged Yki (UAS-yki^Myc) (protein, UniProt Q45VV3 1-395)
chain: MLTTMSASSNTNSLIEKEIDDEDMLSPIKSNNLVVRVNQDTDDNLQALFDSVLNPGDAKRPLQLPLRMRKLPNSFFTPPAPSHSRANSADSTYDAGSQSSINIGNKASIVQQPDGQSPIAAIPQLQIQPSPQHSRLAIHHSRARSSPASLQQNYNVRARSDAAAANNPNANPSSQQQPAGPTFPENSAQEFPSGAPASSAIDLDAMNTCMSQDIPMSMQTVHKKQRSYDVISPIQLNRQLGALPPGWEQAKTNDGQIYYLNHTTKSTQWEDPRIQYRQQQQILMAERIKQNDVLQTTKQTTTSTIANNLGPLPDGWEQAVTESGDLYFINHIDRTTSWNDPRMQSGLSVLDCPDNLVSSLQIEDNLCSNLFNDAQAIVNPPSSHKPDDLEWYKIN
For B1, in assay [3], the binding result was “binds”.

B2: Yki, overexpressed (UAS-Yki) (protein, UniProt Q45VV3 1-395)
chain: B1 chain
For B2, the binding entry in assay [2] is “binds”.
